In this assay the target is Regulator of calcineurin 1 (RCAN1), endogenous (human (endogenous in HK-2)) (UniProt P53805). As to the kind of experiment: co-IP; endogenous proteins in HK-2 cells under hypoxia/reoxygenation (HR) injury; 1 mg total lysate (1% Triton X-100, 150 mM NaCl, 60 mM octyl glucoside buffer) with anti-RCAN1, anti-JNK or anti-Mff overnight at 4 °C, protein A/G magnetic beads; IgG control; immunoblot.

Sequences of proteins named here, by UniProt entry; tags and fusion partners are left off.
UniProt P53805: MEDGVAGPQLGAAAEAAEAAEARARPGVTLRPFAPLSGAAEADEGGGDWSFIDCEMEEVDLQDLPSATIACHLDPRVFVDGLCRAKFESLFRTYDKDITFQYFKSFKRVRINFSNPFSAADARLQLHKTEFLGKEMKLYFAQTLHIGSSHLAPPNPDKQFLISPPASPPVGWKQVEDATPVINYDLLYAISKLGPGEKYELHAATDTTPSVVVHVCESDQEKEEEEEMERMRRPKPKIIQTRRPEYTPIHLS

Results are given in words; binding and its absence hold for the method and conditions named. In cells and extracts the contact can be indirect. Some entries that bind do so weakly or less than the wild type.

B1: Mitochondrial fission factor (Mff), endogenous (protein, UniProt Q9GZY8 1-342)
chain: MSKGTSSDTSLGRVSRAAFPSPTAAEMAEISRIQYEMEYTEGISQRMRVPEKLKVAPPNADLEQGFQEGVPNASVIMQVPERIVVAGNNEDVSFSRPADLDLIQSTPFKPLALKTPPRVLTLSERPLDFLDLERPPTTPQNEEIRAVGRLKRERSMSENAVRQNGQLVRNDSLWHRSDSAPRNKISRFQAPISAPEYTVTPSPQQARVCPPHMLPEDGANLSSARGILSLIQSSTRRAYQQILDVLDENRRPVLRGGSAAATSNPHHDNVRYGISNIDTTIEGTSDDLTVVDAASLRRQIIKLNRRLQLLEEENKERAKREMVMYSITVAFWLLNSWLWFRR
Turning to B1, the binding result is on record as “binds”.

These data come from PMC9452577.
